Measurements from paper PMC9426557.

The chains behind the UniProt entries cited, without tags or fusion partners. Where a name states a change or a piece, a line headed by the entry shows the natural chain unless it says otherwise.
UniProt Q1K8X0: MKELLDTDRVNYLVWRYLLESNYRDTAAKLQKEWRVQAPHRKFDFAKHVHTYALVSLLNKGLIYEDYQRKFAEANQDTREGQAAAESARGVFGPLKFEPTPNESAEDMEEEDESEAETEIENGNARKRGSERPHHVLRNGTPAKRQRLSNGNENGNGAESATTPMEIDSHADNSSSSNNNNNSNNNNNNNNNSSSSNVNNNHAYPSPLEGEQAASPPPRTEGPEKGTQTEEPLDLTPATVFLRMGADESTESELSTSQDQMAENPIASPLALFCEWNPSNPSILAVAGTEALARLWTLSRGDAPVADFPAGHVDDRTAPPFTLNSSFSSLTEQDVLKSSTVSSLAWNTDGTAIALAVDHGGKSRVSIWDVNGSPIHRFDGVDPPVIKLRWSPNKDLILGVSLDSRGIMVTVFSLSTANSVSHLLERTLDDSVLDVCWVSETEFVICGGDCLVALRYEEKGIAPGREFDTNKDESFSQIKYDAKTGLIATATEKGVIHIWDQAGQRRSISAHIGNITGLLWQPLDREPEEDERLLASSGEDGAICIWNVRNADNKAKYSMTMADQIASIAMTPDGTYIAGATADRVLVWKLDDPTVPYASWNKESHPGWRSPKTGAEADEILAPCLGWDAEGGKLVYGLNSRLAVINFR

B1: Myc-CPR-1 (protein, UniProt Q7S7Z6 28-285)
chain: AKGPKITHKVYFDIEQGDKPLGRIVMGLYGKTVPKTAENFRALATGEKGFGYEGSTFHRVIKQFMIQGGDFTKGDGTGGKSIYGDKFPDENFKLKHSKKGLLSMANAGKDTNGSQFFITTVITSWLDGKHVVFGEVLEGYDVVEKIENTKTGPRDAPAEPIKIAKSGELEVPPEGLEGQSEWASPAYANEDEKPAAPVPVTDAKPPAHDSIPAATADDDDTGAPLFAKVLFFGVLVLGLVLYIRLRRAPKGTYGKGME
B2: HDA-2 (histone deacetylase 2, endogenous) (enzyme, UniProt Q7SEL7 1-499)
chain: MDTLQSLQWRPPKPNYLPHDIDVDEPIVDVYKPPIPMDKASDRENQEYYAHMKRMAHEYNITRPKGYTVSYHFNPDMEPHHFGLTHPMKPFRLTLTKSLVTAYGMNFAMDNYNTRIATYEELNSFHTSDYLDYLHMAPPEEMPRDIDNPDKEVKFNLGGSDCPLFHGLYDYCSMSAGSSLDAARKICNKQSDIAIAWGGGLHHAKKSEASGFCYINDIVIAILQLLRCYPRVLYIDIDVHHGDGVEEAFHSTDRVLTCSFHKFAPEVFFPGTGGLDDNGPKSEHNPGAHHAINVPLNDGITDEQYGHLFQSVIGKINEKFRPSVIALQCGADSLAGDRLGRFNLQVQGHGACAKFCKTFGIPMIMFGGGGYTPRNVARAWAYETSVAIDVDEKINKIIPDHTPWRKHFVQEELFPSLEQILGEPRANRNSQKRLQEIIQHVHEQLRFVNAAPSVQQQVIPPDLGGIRDDVEDRLKEESEERDEGLRRDREEGLGISGEF
B3: Myc-SET-4 (protein, UniProt Q7RZ84 1-948)
chain: MTDKLPSLLTPIAPPSRTSFSVSAAVPVQDGIRAQENVEEEPYTIRCICKYPDDDGNTIYCELCDTWQHIECYYPNNSEDALRDPDFAHFCVECQPRPLDRERAKENQRRKLTTGVTEGMADKKSKRPISKSHKKKPKPSDLPLTGQHSKAEKQASIQDSHPPTKKSKSSHKSSHSVSSQAAKRSPQFGSTKSNHAHPPSPAATPPDLPADFEIHTYAPALLSGSSDRGVEIVHTNSFASLQVSNAISAWLRDHNKLQKETGWAYADIFQPLPPNIDQLKRPVDIELSRKTLGQGTVASWKCLKAPSAIAHNVPLVELNGQIGIQSSYCADPDSRWQELTSPLPYVFFHPMLPIYIDTRKEGSQARYIRRSCKPNAMLETYLSDGYELHFWLVTDRQVAAREEITLPWDFRFPNENKSRMLRVLGLSDEDTSAHAESSVDDGEYQALTSWLHNILSEYGGCACNLGSECAFARFHRNHLGKSQAPANPPKTKKRKSKTQSSSTIGTGPATDSRAASEGHLEDAPENDRRSVSGSARSKPPSRDLTPTARQGSFDTLGILTEPTDRDKRKVSMIEETFRRIELQQQPTKKRKARGSDAATTSKKGSKSSATTQTTNATNGPDERHCHFANGETAITSKATSPAASAKSGRVTKSKKTSSRKGSVAVVSHPVPAQPVRLPSRPKYADAGTQTNPDTEANPAPSPARPKRRLVSVTMRIMQHHRWLKEQQGKQRLLNQAVATVPMDVDSPKDNKAVVSVAGSVQDTTLKPSAPSKVTTSDVEMPDAPTVSASHLKAAQSTSVVTAPKSKVLDLRVPMPPVPPFPSSTSLALTSTTSLPAGTSAAQSSFSVTGLPSPLGPSSINGLTANPSPIKKKLSLSDYTKSRMNKAAAARPSVSVPSLKPNAALDEPKLTTSDDNGGAASGSPTTEKVTDTTGSTTAALALTTASSSV

Columns and labels:
[1] = target: SIF-2 (endogenous) (Neurospora crassa (endogenous in N. crassa mycelium)) (UniProt Q1K8X0); experiment: co-IP; N. crassa WT-strain cell extracts with ectopic Myc-tagged protein, precipitated with anti-HDA-2 or anti-SIF-2 antibody, protein G-Sepharose; eluates blotted with anti-Myc and anti-HDA-2 or anti-SIF-2
[2] = target: Myc-SIF-2 (Neurospora crassa); experiment: co-IP; N. crassa cell extracts (4 mg/mL) incubated with monoclonal anti-c-Myc antibody 4 h at 4°C, protein G-Sepharose; eluates blotted with anti-SIF-2 or anti-HDA-2 and anti-Myc
[3] = target: Myc-SNT-1 (Neurospora crassa); experiment: as above

Row | Binder | binding [1] | binding [2] | binding [3]
1 | B1 | binds | – | –
2 | B2 | – | binds | binds
3 | B3 | binds | – | –

These are yes or no findings as the source states them, for the method shown. In cells and extracts the contact can be indirect. A result given as binding can be weak or reduced; the word gives no strength. Where a sequence is shown, tags or fusion partners need not be part of it.
